In article PMC4786424 one finds binding data, which are given here for five molecules.

Amino acid sequences for entries named in this document (tags omitted).
UniProt Q8NFJ6: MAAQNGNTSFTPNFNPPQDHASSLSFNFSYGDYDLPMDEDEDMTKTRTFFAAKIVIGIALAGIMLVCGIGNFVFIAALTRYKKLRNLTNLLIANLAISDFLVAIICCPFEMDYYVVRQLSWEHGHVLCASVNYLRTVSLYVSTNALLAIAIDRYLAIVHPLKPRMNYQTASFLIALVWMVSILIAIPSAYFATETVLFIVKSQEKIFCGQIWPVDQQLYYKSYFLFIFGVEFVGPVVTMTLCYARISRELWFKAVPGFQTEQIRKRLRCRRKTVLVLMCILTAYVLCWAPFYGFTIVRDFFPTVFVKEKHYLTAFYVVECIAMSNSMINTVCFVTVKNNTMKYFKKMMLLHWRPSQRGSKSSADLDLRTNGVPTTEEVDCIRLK
UniProt Q8TCW9: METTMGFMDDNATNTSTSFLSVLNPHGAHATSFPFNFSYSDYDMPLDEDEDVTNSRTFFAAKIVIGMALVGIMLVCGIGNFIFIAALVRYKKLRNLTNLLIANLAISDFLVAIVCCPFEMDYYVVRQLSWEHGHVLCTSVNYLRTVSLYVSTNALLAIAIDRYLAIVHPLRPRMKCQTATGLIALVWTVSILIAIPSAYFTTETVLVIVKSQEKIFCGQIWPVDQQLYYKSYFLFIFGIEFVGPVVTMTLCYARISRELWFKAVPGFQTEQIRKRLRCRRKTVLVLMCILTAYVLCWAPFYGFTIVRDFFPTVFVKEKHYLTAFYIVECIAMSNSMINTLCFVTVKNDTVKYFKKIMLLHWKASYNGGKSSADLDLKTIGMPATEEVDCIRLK

Results are given in words; binding and its absence hold for the method and conditions named. Binding seen in cells or lysates may run through a third protein. Some binding calls cover weakened binding; strength is not graded here. Tags and fused reporters may be left off the sequences shown.

Experiment [1] addresses T1, MRAP2-3Flag (Melanocortin Receptor Accessory Protein 2 with 3Flag tag) (human) (UniProt Q96G30).
T1 sequence (chain, detected as a non-glycosylated and a glycosylated form (PNGase F sensitive)): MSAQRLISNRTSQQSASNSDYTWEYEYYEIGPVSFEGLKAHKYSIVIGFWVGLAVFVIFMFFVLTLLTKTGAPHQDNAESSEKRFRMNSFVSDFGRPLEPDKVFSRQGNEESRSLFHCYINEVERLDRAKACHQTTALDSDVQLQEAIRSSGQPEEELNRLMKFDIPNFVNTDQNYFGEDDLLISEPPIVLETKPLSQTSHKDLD
As to the kind of experiment: co-IP; cells co-transfected with 2HA-receptor and MRAP2-3Flag; lysed in 0.1% n-dodecyl-β-maltoside in PBS with protease inhibitors; IP with mouse anti-HA or mouse anti-Flag M2 overnight at 4°C, protein-G Dynabeads; western blot with rabbit anti-HA or anti-Flag; control: beads only.

Experiment [2] has as its target T2, MRAP2-Y1 (MRAP2 C-terminally fused to the complementary fragment of YFP) (human) (UniProt Q96G30).
T2 sequence: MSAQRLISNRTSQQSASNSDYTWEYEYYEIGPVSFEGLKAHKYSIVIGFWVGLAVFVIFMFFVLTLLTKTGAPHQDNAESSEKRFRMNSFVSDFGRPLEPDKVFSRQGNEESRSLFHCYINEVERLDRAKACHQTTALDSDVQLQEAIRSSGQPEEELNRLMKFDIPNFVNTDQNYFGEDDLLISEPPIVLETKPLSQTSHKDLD
The experiment in a line: split reporter; BiFC with split YFP (Y1 and Y2) in live CHO-K1 cells; 1 hr at room temperature before imaging; fluorescence microscopy; single fusion proteins alone gave no fluorescence.

Experiment [3] has as its target 2HA-PKR2 (prokineticin receptor 2 with N-terminal 2HA tag) (human) (UniProt Q8NFJ6). The experiment in a line: co-IP; cells co-transfected with 2HA-receptor and MRAP2-3Flag; lysed in 0.1% n-dodecyl-β-maltoside in PBS with protease inhibitors; IP with mouse anti-HA or mouse anti-Flag M2 overnight at 4°C, protein-G Dynabeads; western blot with rabbit anti-HA or anti-Flag; control: beads only.

Experiment [4] has as its target 2HA-PKR1 (prokineticin receptor 1 with N-terminal 2HA tag) (human) (UniProt Q8TCW9). The experiment is described as above.

For the molecule “2HA-PKR1 (prokineticin receptor 1 with N-terminal 2HA tag) (from UniProt Q8TCW9 1-393)”, the binding result in experiment [1] is recorded as “binds”. Regarding “2HA-PKR2 (prokineticin receptor 2 with N-terminal 2HA tag) (from UniProt Q8NFJ6 1-384)”, the binding result in experiment [1] is given as “binds”. As to “PKR1-Y2 (PKR1 C-terminally fused to a fragment of YFP) (from UniProt Q8TCW9 1-393) (receptor)”, the binding entry in experiment [2] is recorded as “binds”. On to “PKR2-Y2 (PKR2 fused to a fragment of YFP) (from UniProt Q8NFJ6 1-384) (receptor)”, for which the binding result in experiment [2] was “binds”.

B1: MRAP2-3Flag (Melanocortin Receptor Accessory Protein 2 with 3Flag tag) (protein, UniProt Q96G30 1-205)
chain: MSAQRLISNRTSQQSASNSDYTWEYEYYEIGPVSFEGLKAHKYSIVIGFWVGLAVFVIFMFFVLTLLTKTGAPHQDNAESSEKRFRMNSFVSDFGRPLEPDKVFSRQGNEESRSLFHCYINEVERLDRAKACHQTTALDSDVQLQEAIRSSGQPEEELNRLMKFDIPNFVNTDQNYFGEDDLLISEPPIVLETKPLSQTSHKDLD
modifications: detected as a non-glycosylated and a glycosylated form (PNGase F sensitive)
For the molecule B1, the binding result in experiment [3] and in experiment [4] was “binds” each time.
